{"source": "patent US12215107B1", "about": "“Pyrazino[1′,2′:1,5]pyrazolo[4,3-c] [2,6] naphthyridine compounds as CK2 inhibitors” (KING FAISAL UNIVERSITY, priority 2024, dated 2025)", "type_in_all_cases": "cell-based", "key": {"[1]": {"test_system": "MCF7 (breast)", "assay": "MTT in vitro cytotoxic activity assay, MCF7", "conditions": "Homo sapiens, cells exposed for 96 hours, read-out: Cytotoxicity activity IC50 (50% inhibition of cell proliferation)", "method": "(§1) Compounds 1-16 were screened for their in vitro cytotoxic activity utilizing a 3-(4,5-dimethyl-thiazol-2-yl)-2,5-diphenyltetrazolium bromide (MTT) assay against selected cancer human cell lines consisting of PC3 (prostate), HCT116 (colon), A375 (melanoma), H1299 (lung), MIAPaCa-2 (pancreas), HL60 (leukemia), MCF7 (breast), MDA-MB-231 (breast) (T. Mosmann, J. Immunol. Meth., 1983, 65, 55-63). The cells were cultured at 37° C. in RMPI1640 medium supplemented with 10% fetal bovine serum, 50 IU/mL penicillin, and 50 μg/mL streptomycin in a 5% CO2 incubator. All cells were sub-cultured 3 times/week by trypsinisation. Viable cells were seeded and allowed to adhere for 12 hours before a test drug was added in 96-well plates at an initial density of 1.0×10^5 cells/mL. Tumor cell lines were separately exposed to various concentrations of the tested compounds followed by incubation at a temperature of 37° C. during 96 hours inside a medium of fresh RMPI 1640. Cells were subsequently incubated at 37° C. using MTT at 0.5 mg/mL during 4 hours. After removal of supernatant, formazan crystals were dissolved in isopropanol and the optical density was measured at 570 nm. CX-4945 was used as a positive control."}, "[2]": {"test_system": "HL60 (leukemia)", "assay": "MTT in vitro cytotoxic activity assay, HL60", "conditions": "Homo sapiens, HL-60, cells exposed for 96 hours, read-out: Cytotoxicity activity IC50 (50% inhibition of cell proliferation)", "method": "as §1"}, "[3]": {"test_system": "PC3 (prostate)", "assay": "MTT in vitro cytotoxic activity assay, PC3", "conditions": "Homo sapiens, Prostate cell, cells exposed for 96 hours, read-out: Cytotoxicity activity IC50 (50% inhibition of cell proliferation)", "method": "as §1"}, "[4]": {"test_system": "A375 (melanoma)", "assay": "MTT in vitro cytotoxic activity assay, A375", "conditions": "Homo sapiens, A-375, cells exposed for 96 hours, read-out: Cytotoxicity activity IC50 (50% inhibition of cell proliferation)", "method": "as §1"}, "[5]": {"test_system": "MIAPaCa-2 (pancreas)", "assay": "MTT in vitro cytotoxic activity assay, MIAPaCa-2", "conditions": "Homo sapiens, MIA PaCa-2, cells exposed for 96 hours, read-out: Cytotoxicity activity IC50 (50% inhibition of cell proliferation)", "method": "as §1"}, "[6]": {"test_system": "MDA-MB-231 (breast)", "assay": "MTT in vitro cytotoxic activity assay, MDA-MB-231", "conditions": "Homo sapiens, cells exposed for 96 hours, read-out: Cytotoxicity activity IC50 (50% inhibition of cell proliferation)", "method": "as §1"}, "[7]": {"test_system": "H1299 (lung)", "assay": "MTT in vitro cytotoxic activity assay, H1299", "conditions": "Homo sapiens, NCI-H1299, cells exposed for 96 hours, read-out: Cytotoxicity activity IC50 (50% inhibition of cell proliferation)", "method": "as §1"}, "[8]": {"test_system": "HCT116 (colon)", "assay": "MTT in vitro cytotoxic activity assay, HCT116", "conditions": "Homo sapiens, HCT-116, cells exposed for 96 hours, read-out: Cytotoxicity activity IC50 (50% inhibition of cell proliferation)", "method": "as §1"}}, "data": [{"smiles": "O=C(O)c1ccc2c(c1)nc(Nc1cccc(Cl)c1)c1ccncc12", "note": "[CX-4945, reference compound]", "values": [{"measurement": "IC50", "setting": "[1]", "result": 9.1, "unit": "µM"}, {"measurement": "IC50", "setting": "[2]", "result": 3.7, "unit": "µM"}, {"measurement": "IC50", "setting": "[3]", "result": 2, "unit": "µM"}, {"measurement": "IC50", "setting": "[4]", "result": 4.1, "unit": "µM"}, {"measurement": "IC50", "setting": "[5]", "result": 1, "unit": "µM"}, {"measurement": "IC50", "setting": "[6]", "result": 6.2, "unit": "µM"}, {"measurement": "IC50", "setting": "[7]", "result": 2.3, "unit": "µM"}, {"measurement": "IC50", "setting": "[8]", "result": 2.3, "unit": "µM"}]}]}
